Binding data for 1 molecule are collected here from patent US20250101107A1.

Chains of the proteins cited; added tags and fusions are not shown. Lines headed by an entry give the natural chain unless they say otherwise; changes in a name come on top.
UniProt P01732: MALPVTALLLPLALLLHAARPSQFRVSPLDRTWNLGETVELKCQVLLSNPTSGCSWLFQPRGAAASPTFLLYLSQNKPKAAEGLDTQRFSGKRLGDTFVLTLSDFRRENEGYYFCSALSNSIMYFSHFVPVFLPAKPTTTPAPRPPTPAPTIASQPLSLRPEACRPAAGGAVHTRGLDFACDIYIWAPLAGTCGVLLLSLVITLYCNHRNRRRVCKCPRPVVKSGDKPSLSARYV
UniProt P10966: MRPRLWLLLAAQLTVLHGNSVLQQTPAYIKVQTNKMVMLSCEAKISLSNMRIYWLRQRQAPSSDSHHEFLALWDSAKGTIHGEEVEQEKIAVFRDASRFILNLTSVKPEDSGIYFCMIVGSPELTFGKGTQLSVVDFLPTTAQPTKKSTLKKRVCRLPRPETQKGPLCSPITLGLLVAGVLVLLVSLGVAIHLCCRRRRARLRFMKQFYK

The target of test [1] is T1, human CD8 on human T cells (human) (UniProt P01732+P10966). The experiment in a line: flow cytometry on human CD8+ T cells, titration; titration 50 nM to 3.2 pM, human CD8+ T cells (Table 11).
Test [2] addresses T1, human CD8 on human T cells (human). The experiment in a line: flow cytometry, 0.2 nM antibody on human CD8+ T cells, anti-human IgG detection (MFI AF647). A general note: Flow cytometry measures light scatter and fluorescence of single cells or particles in a stream.
Test [3] shares this target. The experiment in a line: flow cytometry on human CD8+ T cells; single-point screen at 0.2 nM antibody, human CD8+ T cells (FIG. 24).

These are yes or no findings as the source states them, for the method shown.

B1: humanized 02A01-VH5-VK4 (antibody, V domains shown)
VH: EVQLVQSGAEVKKPGATLKISCKASGYTFTDYYMHWVQQAPGKGLEWIGLVNPNNGGNIYNQNFKGRATLTVDTSTSTAYMELSSLRSEDTSVYYCGRVPLYTSHGMDYWGQGTLVTVSS
VL: EIVLTQSPATLSVSPGERATISCRASESVDSYDINSMHWYQQKPGQAPRLLIYDASNRATGIPARFSGSGSRTDFTLTISSVEPEDFATYYCQQSNEDPLTFGQGTKLEIK
Regarding B1, the binding entry in test [1] is “no binding (tested: up to 50 nM)”; in test [2] it was “no binding (tested: 0.2 nM)”; in test [3] it was “no binding (tested: 0.2 nM)”.
